# Experimental data: PubChem BioAssay AID1963822 (ICCB-Longwood Screening Facility, Harvard Medical School, 2024)
# The list shows a part of the results.
# Assay: anaerobic choline-dependent bacterial growth inhibition – minimal medium, absorbance (AID 1963822)
# Conditions: Gram-negative bacterium anaerobic choline minimal medium, measured here: choline growth z-score, timepoint 1, stronger effect = lower value
row,Compound,z-score
1,CN(CCCl)CCCl,0.26
